In all, about 360,000 compounds went through this assay and about 7,500 (2.1%) were called active. The shares of active, inactive and inconclusive entries below differ from those in the screen. Calls follow the shape of the dose curve; as a rule, active = well fitted inhibition curve with a large enough effect; inconclusive = small, poorly fitted or top-dose-only effect, or effect the other way; inactive = flat fitted curve, though single readings scatter. A potency beside an inconclusive call is a rough fit, not a confirmed value.
Experiment: Nrf2 qHTS screen for inhibitors; also: nearly all actives have a fitted effect of over 60% in size
Conditions: A549 ARE-Fluc reporter, luciferase luminescence, 18-24 h; activity change, negative = inhibition: at 46 µM (top of the series)
Method in brief: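 Reporter: ARE-Fluc in A549. Exposure: 18-24 h, 37 °C, 5% CO2, 5% FBS OPTI-MEM. Readouts: fluorescent cytotoxicity (CellTiter-Fluor), then luminescent Nrf2 signal after BugLite.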
% is scaled to controls: 0 for no effect and ±100 for the full control effect; potency is read from the fitted curve at half-maximal effect.

Row | Structure (SMILES) | Potency | activity change, negative = inhibition
1 | CCSC(SCC)[C@H](O)[C@@H](O)[C@H](O)[C@H](O)CO | inconclusive: 16.4 µM [falling, single point] | 
2 | O=C(CN1C(=O)c2ccccc2S1(=O)=O)c1ccc(Cl)cc1Cl | active: 11.6 µM | 
3 | CN1CCc2c(OCC(=O)N3CCCc4ccccc43)cccc2C1=O | active: 9.2 µM | 
4 | COc1cc(SC)ccc1C(=O)N1CCN(c2ccccc2)CC1 | inconclusive: 29.1 µM [falling, single point] | 
5 | NC(=O)CSc1oc(-c2ccco2)nc1S(=O)(=O)c1ccccc1 |  | inactive: -19.9%
6 | C[C@@H]1CC=C[C@H]2[C@H]1C(=O)N(Cc1ccccc1)[C@H]2c1ccc(C(F)(F)F)cc1 |  | inactive: -9.91%
7 | Cc1ccc(SC(C)C(=O)Nc2ccncc2)cc1 (stereo not drawn) | active: 13 µM | 
8 | CCc1cc(-c2n[nH]c(C)c2-c2ccccc2Cl)c(O)cc1OC | inconclusive: 32.6 µM [falling, single point] | 
9 | Cc1ccc2oc(C(=O)N(Cc3ccc(N(C)C)cc3)CC3CCCO3)c(C)c2c1 (stereo not drawn) | inconclusive: 29.1 µM [falling, single point] | 
10 | CC(=NNC(=S)SCc1ccccc1)c1ccccn1 | inconclusive: 7.31 µM [falling, partial curve] | 
11 | COc1ccc(-c2cn[nH]c2-c2ccc(OCc3ccccc3)cc2O)cc1 |  | inactive: -6.52%
12 | COc1cc(C(=S)N2CCOCC2)ccc1OS(=O)(=O)c1ccc(NC(C)=O)cc1 | inconclusive: 20.6 µM [falling, partial curve, poor fit] | 
13 | O=C1N/C(=C\c2ccc(O)cc2)C(O)=C1C=NCc1ccccc1 | inconclusive: 29.1 µM [activator, single point] | 
14 | Cc1ccc(C)c(N2C(=O)CC(Cc3ccc(Cl)cc3)C2=O)c1 (stereo not drawn) | inconclusive: 32.6 µM [falling, single point] | 
15 | O=C(CCS(=O)(=O)c1ccc(Cl)cc1)Nc1nc(-c2ccncc2)cs1 |  | inactive: 5.04%
16 | Cc1nc(SCC(=O)NCCc2ccccc2)c2c(=O)n(C)c(=O)n(C)c2n1 | inconclusive: 0.0052 µM [activator, full curve, poor fit] | 
17 | O=[N+]([O-])c1nn(-c2ccc3c(c2)OCCO3)n(O)c1=NCCC1=CCCCC1 | inconclusive: 13 µM [activator, partial curve] | 
18 | O=C(/C=C/c1ncc(C(F)(F)F)cc1Cl)OCc1ccccc1 | inconclusive: 20.6 µM [falling, single point] | 
19 | CN1C=CC2=C(C#N)C(N)C(C#N)(C#N)C(c3ccccc3)C2C1 (stereo not drawn) |  | inactive: -13.4%
20 | CN(C(=O)/C=C/c1cnc2ccccc2c1)C1CCCCC1 | inconclusive: 0.164 µM [activator, full curve, poor fit] | 
21 | N#C/C(=C/c1ccc(OCc2ccccc2)cc1)C(=O)NC1CCCCC1 | inconclusive: 8.2 µM [activator, partial curve] | 
22 | O=C(NCCc1ccccc1)c1ccc2nc(N3CCCCC3)sc2c1 | inconclusive: 3.66 µM [activator, partial curve] | 
23 | Cc1csc(NC(=O)c2cc(C)on2)n1 | inconclusive: 2.06 µM [activator, partial curve] | 

Entries of single compounds, quoted from the list.
Cc1ccc(SC(C)C(=O)Nc2ccncc2)cc1 (stereo not drawn) as listed: Potency: active: 13 µM
O=[N+]([O-])c1nn(-c2ccc3c(c2)OCCO3)n(O)c1=NCCC1=CCCCC1 as listed: Potency: inconclusive: 13 µM [activator, partial curve]

Later entries:

Row | Structure (SMILES) | Potency | activity change, negative = inhibition
24 | Cc1ccc(C2=NOC(C)(c3nnc(-c4ccncc4)o3)C2)cc1 (stereo not drawn) |  | inactive: 3.25%
25 | CC(NC(=O)CSc1nnc(-c2cccc(S(=O)(=O)N3CCCCC3)c2)o1)C12CC3CC(CC(C3)C1)C2 (stereo not drawn) | inconclusive: 16.4 µM [falling, single point] | 
26 | Clc1ccc(C2=Nc3cc(Cl)ccc3OC2)cc1 | inconclusive: 9.2 µM [activator, partial curve] | 
27 | Cc1cccc(COCC(CC(C)C)N2CCN(C(=O)c3ccc(C(C)(C)C)cc3)CCC2=O)c1 (stereo not drawn) | active: 23.1 µM | 
28 | N=c1n(CCCOc2ccccc2Cl)c2ccccc2n1CC(N)=O |  | inactive: 8.22%
29 | COc1ccccc1/C=C/C(=O)Nc1cccc(S(=O)(=O)N2CCOCC2)c1 | inconclusive: 11.6 µM [falling, partial curve, poor fit] | 
30 | Cc1cc(C)cc(NC(=O)C(OC(=O)Cn2cnc3c2c(=O)n(C)c(=O)n3C)c2ccccc2)c1 (stereo not drawn) | inconclusive: 2.59 µM [activator, full curve] | 
31 | CC(C)Oc1ccc(C(=O)N2CCC(c3nc4ccccc4o3)CC2)cc1 | inconclusive: 18.4 µM [falling, single point] | 
32 | CC(=O)Nc1ccc(S(=O)(=O)N2CCN=C2SCc2ccccc2C)cc1 | inconclusive: 29.1 µM [falling, single point] | 
33 | CN(CC(=O)Nc1cccc(F)c1)C(=O)c1cc(-c2ccco2)nc2ccccc12 |  | inactive: -6.4%
34 | COc1ccc(CCNc2cc(C)nc3c(-c4ccccc4OC)cnn23)cc1OC | inconclusive: 4.11 µM [activator, single point] | 
35 | Brc1ccc(C2CC(c3ccccc3)=Nc3ccccc3N2)cc1 (stereo not drawn) | inconclusive: 16.4 µM [activator, partial curve] | 
36 | COc1ccc(NC(=O)COC(=O)CNS(=O)(=O)c2ccc(C)cc2)c(OC)c1 |  | inactive: 0.202%
37 | Nc1nc(NCc2c(F)cccc2Cl)nn1-c1ccccc1 |  | inactive: 6.57%
38 | O=C1CSC2(C(=O)N(Cc3ccccc3F)c3ccccc32)N1c1cccc(C(F)(F)F)c1 (stereo not drawn) | inconclusive: 32.6 µM [falling, single point] | 
39 | CN1C(=O)CCC1(O)c1ccccc1 (stereo not drawn) | inconclusive: 0.0046 µM [falling, full curve, poor fit] | 
40 | COc1ccc(NC(=S)N2CCN(c3ccc([N+](=O)[O-])cc3)CC2)cc1OC | inconclusive: 9.2 µM [falling, partial curve, poor fit] | 
41 | CCCCC(=O)Nc1ccc(C(=O)NNC(=S)NC(=O)c2ccco2)cc1 | inconclusive: 29.1 µM [falling, single point] | 
42 | c1coc(-c2nc3nc4ccccc4nc3n2CC2CCCO2)c1 (stereo not drawn) | inconclusive: 0.092 µM [activator, full curve, poor fit] | 
43 | CCOc1ccccc1CNC(=O)CCc1c(C)nn(-c2ccc(N3CCCCC3)nn2)c1C | inconclusive: 23.1 µM [falling, partial curve, poor fit] | 
44 | CCCNC(=O)C1CCN(c2cc(-c3ccccc3)nc3ncnn23)CC1 | inconclusive: 14.6 µM [falling, partial curve, poor fit] | 
45 | CCSc1nnc(NC(=O)CSc2nc3c(cc2C#N)CCCC3)s1 | inconclusive: 29.1 µM [falling, single point] | 
46 | Cn1c(CCNC(=O)c2ccc(Cl)cc2)n[nH]c1=S | inconclusive: 32.6 µM [activator, single point] | 

Exported with each value named: entries from further up.
CN1C(=O)CCC1(O)c1ccccc1 (stereo not drawn)
  Potency: inconclusive: 0.0046 µM [falling, full curve, poor fit]
CCCNC(=O)C1CCN(c2cc(-c3ccccc3)nc3ncnn23)CC1
  Potency: inconclusive: 14.6 µM [falling, partial curve, poor fit]

The results go on.

Row | Structure (SMILES) | Potency | activity change, negative = inhibition
47 | COc1ccc(NC(=O)CSCC(=O)N(C)Cc2ccc(Cl)c(Cl)c2)cc1 | inconclusive: 32.6 µM [falling, single point] | 
48 | COc1ccc(/C=N/NC(=O)c2[nH]ncc2Br)c(OC)c1 | inconclusive: 9.2 µM [activator, partial curve] | 
49 | Cn1c(CS(=O)Cc2c(Cl)cccc2Cl)nnc1SCc1ccc(Cl)cc1 (stereo not drawn) |  | inactive: 1.36%
50 | CC/C(=N\Nc1nncc2ccccc12)c1ccc(F)cc1 | inconclusive: 14.6 µM [activator, partial curve] | 
51 | Cc1ccc(NC(=O)Cn2nnc(C(=O)Nc3ccc(C)c(C)c3)c2N)cc1 | inconclusive: 8.2 µM [activator, partial curve, poor fit] | 
52 | COc1ccc(CCNC(=O)CN(Cc2ccc(Cl)cc2)S(C)(=O)=O)cc1 |  | inactive: -3.02%
53 | CCCC(=O)NCc1cc(-c2nn(C)c(=O)c3ccccc23)ccc1OC | inconclusive: 16.4 µM [falling, partial curve, poor fit] | 
54 | Fc1c(F)c(C(F)(F)F)c(F)c(F)c1N/N=C\c1cccs1 | inconclusive: 18.4 µM [falling, single point] | 
55 | Cc1ccc(-n2nc3c(N4CCC(C(=O)NCc5ccc(C)o5)CC4)nnc(C)c3c2C)cc1 |  | inactive: -2.74%
56 | O=C(Nc1ccc(Br)cc1)c1cc(-c2cccs2)nc2ccccc12 | inconclusive: 7.31 µM [falling, partial curve] | 
57 | Clc1ccccc1N1CCN(Cc2c[nH]c3ccccc23)CC1 | inconclusive: 29.1 µM [falling, single point] | 
58 | Cc1cc(C)cc(NC(=O)c2cccc(NC(=O)C3C4CC5OC(=O)C3C5C4)c2)c1 (stereo not drawn) | inconclusive: 20.6 µM [falling, partial curve, poor fit] | 
59 | CCCCn1c(=NC(=O)C(C)(C)Oc2ccc(Cl)cc2)c(C(=O)OCC)cc2c(=O)n3ccccc3nc21 |  | inactive: 10.8% [at 9.27 µM]
60 | COc1cccc(N2CCN(C(=O)c3cc4c(s3)-c3c(C)cccc3OC4)CC2)c1 |  | inactive: -4.24%
61 | Cc1ccn2cc(-c3cccc(NS(C)(=O)=O)c3)nc2c1 | inconclusive: 4.11 µM [activator, partial curve] | 
62 | O=C(NN1C(=O)c2ccccc2C1=O)C1C2CCCCC21 (stereo not drawn) | inconclusive: 20.6 µM [falling, single point] | 
63 | Cc1cccc(C)c1NC(=O)COC(=O)c1cccc2c1C(=O)c1ccccc1C2=O | active: 18.4 µM | 
64 | c1ccc(CSCc2cn3ccsc3n2)cc1 | inconclusive: 2.91 µM [activator, partial curve] | 
65 | O=S(=O)(c1cccc(-c2nc3ccccc3s2)c1)N1CCOCC1 | inconclusive: 18.4 µM [falling, single point] | 
66 | COc1ccc(-c2nc(CN3CCN(C(=O)c4ccco4)CC3)c(C)o2)c(OC)c1C |  | inactive: -27.9%
67 | CCOC(=O)c1c(N)sc2c1CCC(CC)C2 (stereo not drawn) | inconclusive: 11.6 µM [falling, partial curve, poor fit] | 
68 | O=C(N1CCOCC1)N1CCN(S(=O)(=O)c2cccc([N+](=O)[O-])c2)CC1 | inconclusive: 0.146 µM [falling, full curve, poor fit] | 
